{"sequences": {"note": "By UniProt entry, the sequences of proteins in these tests, tags left out.", "UniProt P49327": "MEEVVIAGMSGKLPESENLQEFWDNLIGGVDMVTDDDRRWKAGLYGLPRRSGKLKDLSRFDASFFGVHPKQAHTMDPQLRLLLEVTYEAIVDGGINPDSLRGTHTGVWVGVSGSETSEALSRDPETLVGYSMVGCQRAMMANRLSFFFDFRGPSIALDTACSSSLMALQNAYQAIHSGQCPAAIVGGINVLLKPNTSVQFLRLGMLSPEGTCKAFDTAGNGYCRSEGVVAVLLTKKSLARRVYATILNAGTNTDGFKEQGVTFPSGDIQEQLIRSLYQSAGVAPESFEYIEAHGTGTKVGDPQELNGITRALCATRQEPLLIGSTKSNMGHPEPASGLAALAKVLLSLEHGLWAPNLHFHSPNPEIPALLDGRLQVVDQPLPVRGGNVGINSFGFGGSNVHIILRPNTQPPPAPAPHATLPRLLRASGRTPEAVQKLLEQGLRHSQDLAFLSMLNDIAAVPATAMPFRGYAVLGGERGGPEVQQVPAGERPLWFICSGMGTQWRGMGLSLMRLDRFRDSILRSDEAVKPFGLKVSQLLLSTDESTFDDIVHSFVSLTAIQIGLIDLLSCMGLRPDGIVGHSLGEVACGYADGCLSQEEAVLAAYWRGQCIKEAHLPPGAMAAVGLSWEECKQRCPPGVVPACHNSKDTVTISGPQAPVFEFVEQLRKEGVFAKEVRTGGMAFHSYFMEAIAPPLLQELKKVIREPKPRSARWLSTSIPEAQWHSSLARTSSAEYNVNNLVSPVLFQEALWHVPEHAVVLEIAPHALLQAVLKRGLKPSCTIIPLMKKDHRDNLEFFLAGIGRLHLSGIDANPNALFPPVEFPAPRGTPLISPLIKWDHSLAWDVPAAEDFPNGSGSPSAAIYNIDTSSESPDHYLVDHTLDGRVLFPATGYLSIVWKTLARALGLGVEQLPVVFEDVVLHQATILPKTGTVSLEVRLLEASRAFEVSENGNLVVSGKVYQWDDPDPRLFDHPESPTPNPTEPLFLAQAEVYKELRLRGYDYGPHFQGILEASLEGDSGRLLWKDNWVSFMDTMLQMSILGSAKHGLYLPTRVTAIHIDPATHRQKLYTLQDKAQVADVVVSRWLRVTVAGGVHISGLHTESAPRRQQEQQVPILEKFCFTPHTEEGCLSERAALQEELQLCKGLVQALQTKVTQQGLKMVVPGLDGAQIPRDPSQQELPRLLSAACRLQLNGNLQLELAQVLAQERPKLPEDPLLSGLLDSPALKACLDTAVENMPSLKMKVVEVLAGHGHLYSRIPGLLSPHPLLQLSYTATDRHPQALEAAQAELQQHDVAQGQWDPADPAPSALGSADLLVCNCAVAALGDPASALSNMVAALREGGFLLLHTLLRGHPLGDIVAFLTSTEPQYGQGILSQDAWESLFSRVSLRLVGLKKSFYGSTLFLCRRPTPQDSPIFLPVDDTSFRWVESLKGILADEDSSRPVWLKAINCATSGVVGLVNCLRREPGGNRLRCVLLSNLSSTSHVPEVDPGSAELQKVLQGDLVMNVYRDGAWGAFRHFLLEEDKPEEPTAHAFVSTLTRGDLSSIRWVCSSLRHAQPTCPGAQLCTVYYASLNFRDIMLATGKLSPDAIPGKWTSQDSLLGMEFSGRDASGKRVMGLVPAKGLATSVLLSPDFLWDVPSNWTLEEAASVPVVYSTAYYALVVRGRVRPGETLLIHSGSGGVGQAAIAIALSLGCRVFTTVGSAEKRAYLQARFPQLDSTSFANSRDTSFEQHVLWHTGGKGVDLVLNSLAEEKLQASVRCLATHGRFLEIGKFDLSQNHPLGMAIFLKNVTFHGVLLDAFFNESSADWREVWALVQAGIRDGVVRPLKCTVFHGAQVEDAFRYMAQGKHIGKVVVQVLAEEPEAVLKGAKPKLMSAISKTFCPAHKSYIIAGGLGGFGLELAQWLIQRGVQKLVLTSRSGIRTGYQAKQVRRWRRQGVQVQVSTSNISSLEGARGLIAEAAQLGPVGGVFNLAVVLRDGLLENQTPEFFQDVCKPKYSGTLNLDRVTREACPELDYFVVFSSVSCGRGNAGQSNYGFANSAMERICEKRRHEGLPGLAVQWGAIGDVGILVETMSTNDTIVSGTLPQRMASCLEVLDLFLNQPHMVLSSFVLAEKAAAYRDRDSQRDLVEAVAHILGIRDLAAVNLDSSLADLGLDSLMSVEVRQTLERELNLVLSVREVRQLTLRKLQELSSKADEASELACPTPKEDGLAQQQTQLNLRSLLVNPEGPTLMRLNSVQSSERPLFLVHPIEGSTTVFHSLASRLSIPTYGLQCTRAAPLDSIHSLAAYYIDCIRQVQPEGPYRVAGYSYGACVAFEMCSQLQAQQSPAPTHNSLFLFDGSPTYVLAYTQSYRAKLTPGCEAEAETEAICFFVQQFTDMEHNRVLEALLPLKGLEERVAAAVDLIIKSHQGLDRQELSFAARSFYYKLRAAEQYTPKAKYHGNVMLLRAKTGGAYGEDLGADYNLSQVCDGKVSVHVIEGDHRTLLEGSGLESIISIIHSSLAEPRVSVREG"}, "source": "paper doi:10.1101/2025.03.24.644797", "binders": {"B1": {"name": "HA-TMEM41B (protein, UniProt Q5BJD5 1-291)", "chain": "MAKGRVAERSQLGAHHTTPVGDGAAGTRGLAAPGSRDHQKEKSWVEAGSARMSLLILVSIFLSAAFVMFLVYKNFPQLSEEERVNMKVPRDMDDAKALGKVLSKYKDTFYVQVLVAYFATYIFLQTFAIPGSIFLSILSGFLYPFPLALFLVCLCSGLGASFCYMLSYLVGRPVVYKYLTEKAVKWSQQVERHREHLINYIIFLRITPFLPNWFINITSPVINVPLKVFFIGTFLGVAPPSFVAIKAGTTLYQLTTAGEAVSWNSIFILMILAVLSILPAIFQKKLKQKFE"}}, "molecular_target": "FLAG-FASN (UniProt P49327)", "experiment": "co-IP", "note": "No constants are given. Whether binding was seen depends on the method and setting. Binding seen in cells or lysates may run through a third protein. Some binding calls cover weakened binding; strength is not graded here. Tags and fused reporters may be left off the sequences shown.", "data": [{"binder": "B1", "values": [{"measurement": "binding", "result": "binds"}]}]}
